Results taken from article PMC7186558.
No constants are given. Whether binding was seen depends on the method and setting. Binding seen in cells or lysates may run through a third protein. Some entries that bind do so weakly or less than the wild type. Tags and fused reporters may be left off the sequences shown.

Chains of the proteins cited; added tags and fusions are not shown.
UniProt A6H603: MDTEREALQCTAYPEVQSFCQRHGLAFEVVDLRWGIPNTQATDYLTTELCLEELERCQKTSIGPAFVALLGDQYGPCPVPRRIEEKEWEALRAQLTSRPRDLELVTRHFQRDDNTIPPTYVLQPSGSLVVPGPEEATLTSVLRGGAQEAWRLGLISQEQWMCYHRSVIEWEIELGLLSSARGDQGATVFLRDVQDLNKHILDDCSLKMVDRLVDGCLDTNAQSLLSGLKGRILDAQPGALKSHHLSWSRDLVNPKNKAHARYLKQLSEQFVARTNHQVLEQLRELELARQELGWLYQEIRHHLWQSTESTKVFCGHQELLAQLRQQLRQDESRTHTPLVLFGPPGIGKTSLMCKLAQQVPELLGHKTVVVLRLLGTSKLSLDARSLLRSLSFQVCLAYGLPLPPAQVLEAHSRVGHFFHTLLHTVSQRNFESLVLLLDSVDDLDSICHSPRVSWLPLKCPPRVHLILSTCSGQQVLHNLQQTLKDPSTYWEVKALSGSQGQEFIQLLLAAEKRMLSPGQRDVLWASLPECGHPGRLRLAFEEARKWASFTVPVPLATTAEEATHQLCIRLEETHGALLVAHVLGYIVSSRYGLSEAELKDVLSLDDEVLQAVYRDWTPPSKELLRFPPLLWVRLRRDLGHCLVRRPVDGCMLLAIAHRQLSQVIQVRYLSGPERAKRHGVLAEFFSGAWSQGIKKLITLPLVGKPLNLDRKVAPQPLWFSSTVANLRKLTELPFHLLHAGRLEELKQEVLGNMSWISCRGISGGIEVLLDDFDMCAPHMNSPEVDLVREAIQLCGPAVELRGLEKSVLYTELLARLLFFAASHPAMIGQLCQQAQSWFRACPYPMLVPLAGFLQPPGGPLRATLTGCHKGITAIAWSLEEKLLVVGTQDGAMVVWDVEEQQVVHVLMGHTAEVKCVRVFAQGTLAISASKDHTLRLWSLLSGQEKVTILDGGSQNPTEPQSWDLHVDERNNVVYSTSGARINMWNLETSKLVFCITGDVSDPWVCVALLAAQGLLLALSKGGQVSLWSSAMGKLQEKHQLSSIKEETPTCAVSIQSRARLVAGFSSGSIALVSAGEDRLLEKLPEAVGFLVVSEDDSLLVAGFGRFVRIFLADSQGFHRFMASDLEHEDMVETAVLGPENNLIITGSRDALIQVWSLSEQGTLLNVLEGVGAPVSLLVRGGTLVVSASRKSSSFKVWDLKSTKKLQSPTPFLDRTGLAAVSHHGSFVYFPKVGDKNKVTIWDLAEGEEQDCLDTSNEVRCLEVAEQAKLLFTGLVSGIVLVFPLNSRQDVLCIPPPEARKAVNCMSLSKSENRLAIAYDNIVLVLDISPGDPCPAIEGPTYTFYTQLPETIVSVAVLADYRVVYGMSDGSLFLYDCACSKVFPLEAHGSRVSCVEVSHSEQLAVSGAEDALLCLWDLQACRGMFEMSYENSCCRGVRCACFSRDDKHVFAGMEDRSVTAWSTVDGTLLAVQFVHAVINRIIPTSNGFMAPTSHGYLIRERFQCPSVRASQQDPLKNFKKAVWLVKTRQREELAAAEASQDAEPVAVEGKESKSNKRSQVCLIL

Target: FLAG-tagged full-length Nwd1 (mouse) (UniProt A6H603)
Assay: co-IP; HEK293 cells expressing FLAG-Nwd1 and/or the tagged partner; immunoprecipitation with an anti-FLAG antibody, immunoblotting with anti-EGFP, anti-HA or anti-FLAG antibodies

Row | binding | Binder
1 | binds | Fgams-EGFP (enzyme, UniProt Q5SUR0 1-1337) MAPVLHFYVRPSGHEGAASGRVFRRLQEKLPTLQSVETELCYNVHWAAETLPWAEEMKKLMWLFGCPLVRDDVAQEPWLVPGSNDLLLEVGPRLNFSTPASTNIVSVCQAAGLRAVDRVETTRRYRLSFTDHPTAEMEAISLAALHDRMTEQHYPDPIQSFSPQSIPAPLKGSIDILAEGRPALEKANQELGLALDSWDLDFYTKRFQELQRNPSTVEVFDLAQSNSEHSRHWFFKGQLHVDGKKLAHSLFESIMSTQASSNPNNVLKFCDNSSAIQGKKVKFLRPEDSTRPSCFQQQQGLRHVVFTAETHNFPTGVAPFSGATTGTGGRIRDVQCTGRGAHVVAGTAGYCFGNLHIPDYNLPWEDPSFQYPGNFARPLEVAIEASNGASDYGNKFGEPVLAGFARSLGLQLPDGQRREWIKPIMFSGGIGSMEAKHVGKKPPEPGMEVVKVGGPVYRIGVGGGAASSVQVQGDNTSDLDFGAVQRGDPEMEQKMNRVIRACVEAPGGNPICSLHDQGAGGNGNVLKELSDPEGAIIYTSRFQLGDPTLNALEIWGAEYQESNALLLRPSDRDFLSRASARERCPACFVGTITGDKRIVLVDDRECLVGKTGQGDAPLTPPTPVDLDLDWVLGKMPQKEFFLQRKPPVLQPLALPPELSVRQALNRVLRLPAVASKRYLTNKVDRSVGGLVAQQQCVGPLQTPLADVAVVALSHQECIGAATALGEQPVKSLLDPKAAARLAVSEALTNLVFALVTDLRDVKCSGNWMWAAKLPGEGAALADACEAMVAVMAALGVAVDGGKDSLSMAARVGTETVQAPGSLVISAYAVCPDITATVTPDLKHPGGKGHLLYVPLSPGQHRLGGTALAQCFSQLGEHPPDLDLPENLVRAFHITQGLLKECRLCSGHDVSDGGLVTCLLEMAFAGNCGIEVDVPAPGIHALPVLFAEEPGLVLEVQEADVAGVRQRYESAGLRCLELGHTGEAGPQAMARISVNKAVVVEEPVGELRALWEETSFQLDLLQAEPRCVIEEKQGLKERTGPSYYLPPTFPVASVPCKPGGPVPRVAILREEGSNGDREMADAFHLAGFEVWDVTMQDLCSGAIRLDTFRGVAFVGGFSYADVLGSAKGWAAAVTFNPQAREELGRFRRRPDTFSLGVCNGCQLLALLGWVGSDPSEEQAEPGQDSQPTQPGLLLRHNLSGRFESRWATVRVEPGPALMLRGMEGSVLPVWSAHGEGYMAFSSPELQAKIEAKGLVPLHWADDDGNPTEQYPLNPNGSPGGIAGICSQDGRHLALMPHPERAVRLWQWAWRPSPFDVLPTSPWLQLFINARNWTQEDSC
2 | binds | EGFP-tagged full-length Paics (enzyme, UniProt Q9DCL9 1-425) MATAVVVNIGKKLYEGKTKEVYELLDTPGRVLLQSKDQITAGNAARKNHLEGKAAISNKITSCIFQLLQEAGIKTAFTKKCGETAFIAPQCEMIPIEWVCRRIATGSFLKRNPGVQEGYKFYPPKVEMFFKDDANNDPQWSEEQLIAAKFCFAGLVIGQTEVDIMSHATQAIFEILEKSWLPQDCTLVDMKIEFGVDVTTKEIVLADVIDNDSWRLWPSGDRSQQKDKQSYRDLKEVTPEGLQMVKKNFEWVADRVELLLKSDSQCRVVVLMGSTSDLGHCEKIKKACGNFGIPCELRVTSAHKGPDETLRIKAEYEGDGIPTVFVSVAGRSNGLGPVLSGNTAYPVISCPPITPDWGAQDVWSSLRLPSGIGCSTILSPEGSAQFAAQIFGLNNHLVWAKLRASILNTWISLKQADKKVRQCNL
